From US20100197768A1
Results are given in words; binding and its absence hold for the method and conditions named. Some entries that bind do so weakly or less than the wild type.

Chains of the proteins cited; added tags and fusions are not shown. Lines headed by an entry give the natural chain unless they say otherwise; changes in a name come on top. A line that says so, or that is headed by a name, gives the form on record, which may keep a tag or linker.
hA3G-DR (recombinant hA3G-4×His, DNase I and RNase A treated) (Q9HC16, form named): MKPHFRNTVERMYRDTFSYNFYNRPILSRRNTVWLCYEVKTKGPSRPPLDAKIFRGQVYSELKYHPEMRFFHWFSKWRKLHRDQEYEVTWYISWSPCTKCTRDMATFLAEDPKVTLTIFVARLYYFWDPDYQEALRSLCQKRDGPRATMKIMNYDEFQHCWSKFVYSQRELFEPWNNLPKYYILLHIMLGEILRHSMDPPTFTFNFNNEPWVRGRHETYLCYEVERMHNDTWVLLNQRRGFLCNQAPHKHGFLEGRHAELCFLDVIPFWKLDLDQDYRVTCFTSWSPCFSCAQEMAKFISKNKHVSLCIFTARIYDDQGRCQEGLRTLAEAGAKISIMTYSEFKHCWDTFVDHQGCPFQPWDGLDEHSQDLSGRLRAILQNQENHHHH

How the values were obtained:
[1] = molecular target: hA3G-DR (recombinant hA3G-4×His, DNase I and RNase A treated) (human) (UniProt Q9HC16); assay: analytical gel filtration (Superose 6) of hA3G-DR
[2] = molecular target: hA3G-DR (recombinant hA3G-4×His, DNase I and RNase A treated) (human) (UniProt Q9HC16); assay: SAXS forward scattering of RNase treated recombinant hA3G-4×His

hA3G-DR (recombinant hA3G-4×His, DNase I and RNase A treated) (from UniProt Q9HC16 1-384) (enzyme)
binding [1]: binds | binding [2]: binds
